Small-molecule microarray binding calls

Oligonucleotides screened, 5′ to 3′:
PreQ1: PreQ1 riboswitch RNA pseudoknot, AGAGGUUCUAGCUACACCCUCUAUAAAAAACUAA. From B. subtilis. Hit rate about 0.7% of about 24,000 compounds.
SAM-II: SAM-II riboswitch RNA pseudoknot, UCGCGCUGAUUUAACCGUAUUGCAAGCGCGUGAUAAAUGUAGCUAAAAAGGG. Hit rate about 1% of about 21,000 compounds.
TPP: TPP riboswitch RNA three-way junction, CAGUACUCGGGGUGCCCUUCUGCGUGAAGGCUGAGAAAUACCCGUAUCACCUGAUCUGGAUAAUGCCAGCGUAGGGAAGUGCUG. Hit rate about 0.7% of about 24,000 compounds.

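The test is a small-molecule microarray: each compound is printed twice on a reactive slide, and binding shows as fluorescence of the labelled oligonucleotide after washing. For the PreQ1, TPP and SAM-II riboswitches the laboratory earlier reported (doi:10.1038/s41467-019-09493-3) 1 µM RNA, 2 h, and a rule that included a mean Z-score above 3 (spot signal-to-noise against the whole library), a score well above that on a control array, and duplicate spots agreeing (coefficient of variation under 100). The data file gives only the calls; its cut-offs may differ, and compounds hitting several targets are kept. The calls come from the array alone, and fixing a compound to the slide can hide its binding.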
Key: Y = hit, N = tested without a hit.
This is an unselected part of the compounds tested.
A dash means that no call is listed here.

| # | compound | PreQ1 | SAM-II | TPP |
|---|---|---|---|---|
| 1 | `Cc1cccc(C)c1Nc1c(-c2ccccn2)nc2ccc(Cl)cn12` | N | N | N |
| 2 | `O=C(NCCOCCO)c1cnc(-c2ccccc2)nc1O` | N | N | N |
| 3 | `CCOc1ccc(Nc2nc(C3(C)CC4(CC(C)(C)OC4=O)C(=O)O3)cs2)cc1` (stereo not drawn) | N | N | N |
| 4 | `Cc1ccc(C(=O)C(NC(=O)c2cccs2)Nc2ccccc2Br)cc1` (stereo not drawn) | N | N | N |
| 5 | `CCc1[nH]nc2c1C1(C(=O)N(CC)c3ccccc31)C(C#N)=C(N)O2` (stereo not drawn) | N | N | N |
| 6 | `CCc1ccc(C2C(C#N)=C(N)OC3=C2S(=O)(=O)N(Cc2ccccc2C)c2ccccc23)cc1` (stereo not drawn) | N | - | N |
| 7 | `O=C(NN1CCCCC1)NN1CCCCC1` | N | N | N |
| 8 | `OCc1nc2ccccc2n1CCOc1cccc(Cl)c1` | N | N | N |
| 9 | `Cc1ccc(C)c2c(C)c(C(=O)NCC3CCCN3)[nH]c12` (stereo not drawn) | N | N | N |
| 10 | `COc1ccc([C@H]2C[C@@H](c3ccc(F)cc3)Nc3nc(N)nn32)cc1OC` | N | N | N |
| 11 | `Cc1ccc(NS(=O)(=O)c2ccc(N)cc2)nc1` | N | N | N |
| 12 | `O=C(N[C@H]1CC[C@H]1NC1CCCC1)c1ccc(Cn2cnnn2)cc1` | N | N | N |
| 13 | `Cc1ccccc1CSc1nc(N)cc(N(C)CCC(N)=O)n1` | N | N | N |
| 14 | `CCN(CC)C(=O)c1cn(C2CCN(c3ncc(C)c(N)n3)CC2)nn1` | N | N | N |
| 15 | `N#Cc1c2c(c(NCCCN3CCOCC3)n3c1nc1ccccc13)CCC2` | N | N | N |
| 16 | `CC1=C(c2cccc(Br)c2)S(=O)(=O)N=C1Nc1cc(F)ccc1F` | N | - | N |
| 17 | `CC(=O)Nc1cccc(-c2ccc(N)nc2)c1` | N | N | N |
| 18 | `COc1cccc(OCC2CCCN(C(=O)Cc3c(C)nc(N)nc3C)C2)c1` (stereo not drawn) | N | N | N |
| 19 | `NCCO[C@H]1C[C@@H](O)C12CCN(Cc1c(F)cccc1F)CC2` | N | N | N |
| 20 | `Cn1ncc2c(N3CCCC4(CCNCC4)CC3)nc(-c3ccncc3)nc21` | N | N | N |
| 21 | `COc1ccc(COCC(O)CN2CCOCC2)cc1OC.Cl` (stereo not drawn) | N | N | N |
| 22 | `CCOc1cccc(C2c3c(-c4c(C)cc(C)cc4O)n[nH]c3C(=O)N2CCO)c1` (stereo not drawn) | N | - | N |
| 23 | `NC(=O)c1nc(CNc2nc(CO)nc3ccccc23)no1` | N | N | N |
| 24 | `CC1(C)CC(O)CC(C)(C)N1O` | N | N | N |
| 25 | `CCCCCCCn1c(CCCO)nc2ccccc21` | N | N | N |
| 26 | `O=C(O)c1ccc(CNCCN2CCC(Cc3ccccc3)CC2)s1` | N | - | N |
| 27 | `CCC(C)Nc1cc(C(C)C)nc2nc(-c3cccnc3)nn12` (stereo not drawn) | N | - | N |
| 28 | `CC(Cc1ccccc1)NCC(=O)N1c2ccccc2Sc2ccc(Cl)cc21` (stereo not drawn) | N | N | N |
| 29 | `N#Cc1cccc(C(C#CC2CCCCC2)N2CCN(CCO)CC2)c1` (stereo not drawn) | N | N | N |
| 30 | `CCOC(=O)c1cnc2c(C)c(Cl)ccc2c1NCc1ccco1` | N | N | N |
| 31 | `CC1(C)CC(=O)C2=C(C1)OC(N)=C(C#N)C2c1cccc(F)c1` (stereo not drawn) | N | N | N |
| 32 | `CCSCC(C)NCCN(C)S(C)(=O)=O` (stereo not drawn) | N | N | N |
| 33 | `Cn1c(NCCO)nc2c1c(=O)n(Cc1ccc(F)cc1)c(=O)n2C` | N | N | N |
| 34 | `CC(C)c1cc(C(=O)N(C)Cc2cccc(-n3cccn3)c2)nc(N)n1` | N | N | N |
| 35 | `CCNc1nc(C)cc(N2CCN(S(=O)(=O)c3cc(C)ccc3OC)CC2)n1` | N | - | N |
| 36 | `CCN1CCCC1CN1CC(=O)C(c2nc(-c3ccccc3)cs2)=C1N` (stereo not drawn) | N | - | N |
| 37 | `CN(C)CCCn1ccnc1C1CCN(C(=O)CC(O)CN)CC1` (stereo not drawn) | N | N | N |
| 38 | `COc1ccc2[nH]c(CCN(C)Cc3cc4n(n3)CCCNC4)nc2c1` | N | N | N |
| 39 | `Cc1ccc(CN(CCO)C(=O)c2ccccc2-c2ncc[nH]2)s1` | N | N | N |
| 40 | `Nc1ccc(S(=O)(=O)Nc2nccc(C=Cc3cccs3)n2)cc1` | N | N | N |
| 41 | `CCc1nc2ccccc2n1CC(O)COc1ccccc1C(C)=O` (stereo not drawn) | N | N | N |
| 42 | `CCCCCNC(=O)c1nn(-c2ccc(C)cc2)nc1CO` | N | - | N |
| 43 | `CCCCCCNc1cc(C(C)C)nc2nc(-c3cccnc3)nn12` | N | - | N |
| 44 | `N#Cc1c(-c2ccccc2)cc(-c2cccc(Br)c2)nc1N` | N | N | N |
| 45 | `O=[N+]([O-])c1ncc[nH]1` | N | N | N |
| 46 | `Nc1nonc1-c1nc2ccccc2n1CC(=O)O` | N | N | N |
| 47 | `CNC(=O)c1cc(Oc2ccc(NC(=O)Nc3cc(C(C)(C)C)nn3-c3ccc4ncccc4c3)c(F)c2)ccn1` | N | N | N |
| 48 | `CCNC(=O)[C@@H]1C[C@H](N)CN1C(=O)c1ccccc1NC` | N | N | N |
| 49 | `CC(COc1ccccc1)NCCn1ncc2ccccc2c1=O` (stereo not drawn) | N | N | N |
| 50 | `CCC1(C)Cc2c(C#N)c(N)n(-c3ccccc3)c(=S)c2CO1` (stereo not drawn) | N | N | N |
| 51 | `CCCc1cncnc1N1CC[C@](C)(O)[C@@H](O)C1` | N | N | N |
| 52 | `c1coc(CNc2ccc3c(c2)ncn3C2CCCCC2)c1` | N | N | N |
| 53 | `O[C@@H]1CN(Cc2c(Cl)nc3sccn23)CC[C@H]1c1ccc2c(c1)OCO2` | N | N | N |
| 54 | `Cc1c(NCc2cccnc2)cccc1C(=O)N(C)Cc1ccoc1` | N | N | N |
| 55 | `COc1ccc(CCNCc2ccc(C)cc2)cc1OC` | N | N | N |
| 56 | `CC(C)Nc1c([N+](=O)[O-])c(=O)oc2ccccc12` | N | N | N |
| 57 | `CC(C)c1ccc(CNc2ccc3c(c2)ncn3C)cc1` | N | N | N |
| 58 | `Clc1ccccc1-n1cc(-c2ccccc2)c2c(NC3CC3)ncnc21` | N | - | N |
| 59 | `N#Cc1cc2c(nc1N1CCC3(CC1)OCCCC3O)CCCC2` (stereo not drawn) | N | N | N |
| 60 | `CCOC(=O)N1CCN(c2c(NCCN3CCCCCC3)c(=O)c2=O)CC1` | N | - | N |
| 61 | `CCc1ccc(C2C(C#N)=C(N)OC3=C2C(=O)CCC3)cc1` (stereo not drawn) | N | N | N |
| 62 | `Cc1cccc(Nc2nc(C)nc(N)c2S(=O)(=O)c2ccccc2)c1` | N | N | N |
| 63 | `COc1cccc(CNCc2c(C(=O)O)n(C)c3ccccc23)c1` | N | - | N |
| 64 | `O=C(NCc1ccccn1)c1nn(-c2ccc(Cl)cc2)nc1CO` | N | - | N |
| 65 | `Nc1[nH]nc(C(F)(F)F)c1-c1ccc(F)cc1` | N | N | N |
| 66 | `C=CCc1cc(C)ccc1OCC(O)Cn1c(CO)nc2ccccc21` (stereo not drawn) | N | N | N |
| 67 | `CCOc1ccc(N2C(=O)CC(NC3CCCNC3=O)C2=O)cc1` (stereo not drawn) | N | N | N |
| 68 | `CS(=O)(=O)N(Cc1ccco1)CC(O)Cn1c2ccccc2c2ccccc21` (stereo not drawn) | N | N | N |
| 69 | `CSc1cccc(NC(=O)OC2CCCCCCCCCCC2)c1` | N | N | N |
| 70 | `Cc1ccc(-n2nc(CC3CCN(C)CC3)nc2[C@@H]2C[C@@H](O)CN2)c(C)c1` | N | N | N |
| 71 | `NCc1ccc2ccccc2n1` | N | N | N |
| 72 | `NS(=O)(=O)c1ccc(F)c(C(=O)NCC(O)CN2CCCCCC2)c1` (stereo not drawn) | N | N | N |
| 73 | `Cc1ccc(Nc2c(-c3cccnc3)nc3ccc(Br)cn23)cc1` | N | N | N |

Source: the ROBIN nucleic acid binder screens (doi:10.1002/anie.202211358).